This is one part of the list. The data scatter; read single values as rough.
Each molecule was assayed on T1, TK1 C206 (assay: log2 mean competition ratio of IA-DTB cysteine labelling (DMSO/compound) (log2 ratio); higher = stronger cysteine engagement by compound). Details: 50 µM; treatment time: 4 h; cell line lysate: HEK293T.
T1 sequence (whole entry): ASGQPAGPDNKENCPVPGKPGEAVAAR
Method: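 IA-DTB competitive cysteine chemoproteomics in HEK293T RIPA lysate. Lysates were treated with compound 29 or 30 at 50 or 200 µM for 4 h, then IA-DTB (500 µM, 1 h), trypsin-digested, NeutrAvidin-enriched and analysed by diaPASEF. Competition ratio = intensity DMSO / intensity compound (n=4 treated, n=64 DMSO); binding: mean log2 CR ≥ 1 and p ≤ 0.05 plus QC filters. Target is the cysteine site.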

Row | SMILES | log2 mean competition ratio
1 | O=C(CCl)N[C@@H]1CCCc2ccccc21 | -0.0936
2 | O=C(CCl)N[C@H]1CCCc2ccccc21 | -0.325

Same assay, conditions: 200 µM; treatment time: 4 h; cell line lysate: HEK293T

Row | SMILES | log2 mean competition ratio
3 | O=C(CCl)N[C@@H]1CCCc2ccccc21 | -0.15
4 | O=C(CCl)N[C@H]1CCCc2ccccc21 | -0.374

— the supplement of paper PMC11732987, “Enantioselective OTUD7B fragment discovery through chemoproteomics screening and high-throughput optimisation” (Communications Chemistry, 2025)
